Drawing on paper doi:10.1101/2022.12.06.519343, this text covers binding for one molecule.

Results are given in words; binding and its absence hold for the method and conditions named. Some entries that bind do so weakly or less than the wild type. Tags and fused reporters may be left off the sequences shown.

In the experiment the target is T1, tag-free version of sExu531 (Drosophila melanogaster).
T1 chain: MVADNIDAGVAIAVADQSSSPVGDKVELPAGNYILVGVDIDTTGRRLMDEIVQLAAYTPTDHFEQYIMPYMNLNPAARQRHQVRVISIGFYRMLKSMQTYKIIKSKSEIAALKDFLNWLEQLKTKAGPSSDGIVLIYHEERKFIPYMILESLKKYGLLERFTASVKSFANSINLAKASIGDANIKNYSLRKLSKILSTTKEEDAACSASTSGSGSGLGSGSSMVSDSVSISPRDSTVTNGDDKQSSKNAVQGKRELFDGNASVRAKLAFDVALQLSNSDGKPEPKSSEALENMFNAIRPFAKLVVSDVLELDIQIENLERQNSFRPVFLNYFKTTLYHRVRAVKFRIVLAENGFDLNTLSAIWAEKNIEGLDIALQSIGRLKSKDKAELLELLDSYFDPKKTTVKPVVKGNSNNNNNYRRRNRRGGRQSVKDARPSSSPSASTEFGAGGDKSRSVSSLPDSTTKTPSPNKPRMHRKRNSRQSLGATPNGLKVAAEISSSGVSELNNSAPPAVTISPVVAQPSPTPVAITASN
Description: SEC. As to conditions: remark: other sources report otherwise.

B1: tag-free version of sExu531 (protein)
chain: MVADNIDAGVAIAVADQSSSPVGDKVELPAGNYILVGVDIDTTGRRLMDEIVQLAAYTPTDHFEQYIMPYMNLNPAARQRHQVRVISIGFYRMLKSMQTYKIIKSKSEIAALKDFLNWLEQLKTKAGPSSDGIVLIYHEERKFIPYMILESLKKYGLLERFTASVKSFANSINLAKASIGDANIKNYSLRKLSKILSTTKEEDAACSASTSGSGSGLGSGSSMVSDSVSISPRDSTVTNGDDKQSSKNAVQGKRELFDGNASVRAKLAFDVALQLSNSDGKPEPKSSEALENMFNAIRPFAKLVVSDVLELDIQIENLERQNSFRPVFLNYFKTTLYHRVRAVKFRIVLAENGFDLNTLSAIWAEKNIEGLDIALQSIGRLKSKDKAELLELLDSYFDPKKTTVKPVVKGNSNNNNNYRRRNRRGGRQSVKDARPSSSPSASTEFGAGGDKSRSVSSLPDSTTKTPSPNKPRMHRKRNSRQSLGATPNGLKVAAEISSSGVSELNNSAPPAVTISPVVAQPSPTPVAITASN
As for B1, the binding entry is on record as “binds”.
